Assay results as given in the supplement of paper PMC10849652.
Some of the results follow.

By UniProt entry, the sequences of proteins in these tests, tags left out. Where a name states a change or a piece, a line headed by the entry shows the natural chain unless it says otherwise.
UniProt P35916, whole entry, looked up: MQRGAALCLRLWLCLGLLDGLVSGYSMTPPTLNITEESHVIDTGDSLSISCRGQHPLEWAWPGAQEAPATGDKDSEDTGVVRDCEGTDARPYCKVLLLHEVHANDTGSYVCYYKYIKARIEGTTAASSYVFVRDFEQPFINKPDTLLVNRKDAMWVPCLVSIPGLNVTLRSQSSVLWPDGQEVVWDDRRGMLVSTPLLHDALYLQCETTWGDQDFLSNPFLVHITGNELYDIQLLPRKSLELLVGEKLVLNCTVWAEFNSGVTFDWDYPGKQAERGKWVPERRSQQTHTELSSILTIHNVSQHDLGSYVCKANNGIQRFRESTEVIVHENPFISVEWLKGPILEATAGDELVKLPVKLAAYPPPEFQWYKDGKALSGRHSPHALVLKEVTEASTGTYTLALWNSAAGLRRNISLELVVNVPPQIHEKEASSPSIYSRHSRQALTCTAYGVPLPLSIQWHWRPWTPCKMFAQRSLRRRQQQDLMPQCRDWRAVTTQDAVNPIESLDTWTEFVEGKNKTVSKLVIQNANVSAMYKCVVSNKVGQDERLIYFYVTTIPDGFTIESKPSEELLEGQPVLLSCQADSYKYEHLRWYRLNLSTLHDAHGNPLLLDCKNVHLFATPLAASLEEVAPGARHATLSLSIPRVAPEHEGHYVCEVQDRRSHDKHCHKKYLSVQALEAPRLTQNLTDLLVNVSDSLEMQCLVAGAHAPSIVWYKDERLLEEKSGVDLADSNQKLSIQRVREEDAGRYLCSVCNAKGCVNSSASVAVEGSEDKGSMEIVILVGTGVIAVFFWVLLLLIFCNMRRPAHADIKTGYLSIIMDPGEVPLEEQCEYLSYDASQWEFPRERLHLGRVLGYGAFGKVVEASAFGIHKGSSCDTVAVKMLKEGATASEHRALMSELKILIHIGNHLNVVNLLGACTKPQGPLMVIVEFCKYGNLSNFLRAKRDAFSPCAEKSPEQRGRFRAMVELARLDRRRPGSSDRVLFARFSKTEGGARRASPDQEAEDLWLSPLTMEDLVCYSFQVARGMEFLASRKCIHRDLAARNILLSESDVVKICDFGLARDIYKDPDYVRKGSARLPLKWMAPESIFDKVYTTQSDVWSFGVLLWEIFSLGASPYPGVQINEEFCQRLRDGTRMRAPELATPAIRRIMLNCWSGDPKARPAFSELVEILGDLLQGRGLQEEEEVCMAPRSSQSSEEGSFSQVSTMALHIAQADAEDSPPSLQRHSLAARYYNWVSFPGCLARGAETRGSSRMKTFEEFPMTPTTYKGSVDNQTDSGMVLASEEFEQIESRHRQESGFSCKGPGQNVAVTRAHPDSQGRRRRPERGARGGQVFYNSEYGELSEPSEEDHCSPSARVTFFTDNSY
UniProt O95684: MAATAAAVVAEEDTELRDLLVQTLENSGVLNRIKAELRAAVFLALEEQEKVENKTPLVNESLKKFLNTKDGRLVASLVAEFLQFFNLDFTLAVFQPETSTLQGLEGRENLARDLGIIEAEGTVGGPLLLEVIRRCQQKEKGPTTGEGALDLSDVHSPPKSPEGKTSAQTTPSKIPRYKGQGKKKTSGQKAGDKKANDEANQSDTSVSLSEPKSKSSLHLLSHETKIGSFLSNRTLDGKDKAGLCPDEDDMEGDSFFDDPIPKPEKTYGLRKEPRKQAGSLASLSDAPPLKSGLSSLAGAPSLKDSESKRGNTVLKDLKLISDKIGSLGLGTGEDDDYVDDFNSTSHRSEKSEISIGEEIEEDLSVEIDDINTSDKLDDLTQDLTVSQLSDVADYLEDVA
UniProt P0C5J1: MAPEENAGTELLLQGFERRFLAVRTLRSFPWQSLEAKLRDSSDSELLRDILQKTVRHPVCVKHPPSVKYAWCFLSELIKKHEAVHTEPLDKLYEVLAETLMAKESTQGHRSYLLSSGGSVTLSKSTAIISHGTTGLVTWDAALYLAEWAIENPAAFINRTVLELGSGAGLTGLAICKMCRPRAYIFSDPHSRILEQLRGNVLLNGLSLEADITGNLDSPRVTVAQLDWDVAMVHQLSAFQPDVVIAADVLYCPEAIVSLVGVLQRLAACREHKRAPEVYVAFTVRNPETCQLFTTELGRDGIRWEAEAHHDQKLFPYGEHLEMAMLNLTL
UniProt Q92913: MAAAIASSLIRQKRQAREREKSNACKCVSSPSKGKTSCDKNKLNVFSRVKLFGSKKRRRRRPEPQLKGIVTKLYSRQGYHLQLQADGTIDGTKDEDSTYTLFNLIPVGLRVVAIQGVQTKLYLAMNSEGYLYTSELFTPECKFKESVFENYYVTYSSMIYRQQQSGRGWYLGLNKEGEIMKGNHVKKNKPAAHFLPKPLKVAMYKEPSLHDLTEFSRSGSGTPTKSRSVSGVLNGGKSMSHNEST
UniProt O94887: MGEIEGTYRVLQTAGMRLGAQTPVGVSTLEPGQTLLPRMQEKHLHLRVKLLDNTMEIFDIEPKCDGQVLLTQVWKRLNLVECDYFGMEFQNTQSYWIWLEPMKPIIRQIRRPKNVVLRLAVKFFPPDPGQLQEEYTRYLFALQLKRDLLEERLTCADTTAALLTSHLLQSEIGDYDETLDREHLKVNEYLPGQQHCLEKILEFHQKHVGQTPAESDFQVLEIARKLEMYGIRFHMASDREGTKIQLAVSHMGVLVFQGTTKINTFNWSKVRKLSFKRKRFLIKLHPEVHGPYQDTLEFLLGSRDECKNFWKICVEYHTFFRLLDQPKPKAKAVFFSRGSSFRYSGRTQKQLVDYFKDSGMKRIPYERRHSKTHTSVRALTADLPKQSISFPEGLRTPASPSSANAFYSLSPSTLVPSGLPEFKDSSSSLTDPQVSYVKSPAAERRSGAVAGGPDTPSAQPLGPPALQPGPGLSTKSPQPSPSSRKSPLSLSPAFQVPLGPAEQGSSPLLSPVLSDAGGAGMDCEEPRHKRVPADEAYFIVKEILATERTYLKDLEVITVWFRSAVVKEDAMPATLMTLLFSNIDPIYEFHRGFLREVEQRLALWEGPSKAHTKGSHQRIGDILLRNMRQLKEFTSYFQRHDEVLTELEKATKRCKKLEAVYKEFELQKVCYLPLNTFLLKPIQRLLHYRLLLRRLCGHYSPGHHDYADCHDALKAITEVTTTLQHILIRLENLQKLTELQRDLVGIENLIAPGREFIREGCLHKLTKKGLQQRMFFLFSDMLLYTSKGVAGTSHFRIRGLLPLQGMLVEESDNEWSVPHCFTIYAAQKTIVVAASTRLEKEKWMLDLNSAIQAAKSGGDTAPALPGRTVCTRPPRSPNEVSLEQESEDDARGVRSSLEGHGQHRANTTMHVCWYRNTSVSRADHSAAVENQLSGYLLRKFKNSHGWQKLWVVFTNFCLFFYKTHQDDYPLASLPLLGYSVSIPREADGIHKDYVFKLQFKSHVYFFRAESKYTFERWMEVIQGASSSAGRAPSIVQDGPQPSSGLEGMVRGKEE
UniProt O15287: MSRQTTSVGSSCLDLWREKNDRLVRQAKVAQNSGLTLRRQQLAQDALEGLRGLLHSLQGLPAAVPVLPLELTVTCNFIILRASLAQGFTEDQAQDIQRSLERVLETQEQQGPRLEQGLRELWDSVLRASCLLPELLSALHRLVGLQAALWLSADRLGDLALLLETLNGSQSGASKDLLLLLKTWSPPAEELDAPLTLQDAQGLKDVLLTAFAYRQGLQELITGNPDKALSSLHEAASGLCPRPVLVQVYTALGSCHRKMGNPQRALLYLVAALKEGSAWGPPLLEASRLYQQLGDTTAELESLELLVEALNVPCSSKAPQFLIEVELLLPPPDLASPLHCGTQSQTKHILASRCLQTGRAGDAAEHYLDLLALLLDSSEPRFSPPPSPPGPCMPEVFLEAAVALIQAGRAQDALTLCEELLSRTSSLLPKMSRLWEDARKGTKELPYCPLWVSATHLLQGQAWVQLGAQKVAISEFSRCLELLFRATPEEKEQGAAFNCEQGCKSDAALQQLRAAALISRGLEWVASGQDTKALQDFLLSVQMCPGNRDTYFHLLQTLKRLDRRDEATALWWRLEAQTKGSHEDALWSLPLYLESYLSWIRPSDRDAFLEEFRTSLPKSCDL
UniProt Q9HB96: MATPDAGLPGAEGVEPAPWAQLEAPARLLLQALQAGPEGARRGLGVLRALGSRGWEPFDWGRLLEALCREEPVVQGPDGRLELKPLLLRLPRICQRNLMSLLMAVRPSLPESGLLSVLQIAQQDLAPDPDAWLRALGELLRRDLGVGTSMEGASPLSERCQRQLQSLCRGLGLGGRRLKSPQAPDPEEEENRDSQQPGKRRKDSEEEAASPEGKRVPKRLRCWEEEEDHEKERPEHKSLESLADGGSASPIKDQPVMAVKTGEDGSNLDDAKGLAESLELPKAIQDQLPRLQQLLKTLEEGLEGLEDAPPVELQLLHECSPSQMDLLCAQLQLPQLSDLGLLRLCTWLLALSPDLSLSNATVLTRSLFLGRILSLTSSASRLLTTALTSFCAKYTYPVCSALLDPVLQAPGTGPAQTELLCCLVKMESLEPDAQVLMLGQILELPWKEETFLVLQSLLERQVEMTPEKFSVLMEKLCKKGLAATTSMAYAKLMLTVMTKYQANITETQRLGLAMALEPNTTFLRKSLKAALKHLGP
UniProt Q6PCT2: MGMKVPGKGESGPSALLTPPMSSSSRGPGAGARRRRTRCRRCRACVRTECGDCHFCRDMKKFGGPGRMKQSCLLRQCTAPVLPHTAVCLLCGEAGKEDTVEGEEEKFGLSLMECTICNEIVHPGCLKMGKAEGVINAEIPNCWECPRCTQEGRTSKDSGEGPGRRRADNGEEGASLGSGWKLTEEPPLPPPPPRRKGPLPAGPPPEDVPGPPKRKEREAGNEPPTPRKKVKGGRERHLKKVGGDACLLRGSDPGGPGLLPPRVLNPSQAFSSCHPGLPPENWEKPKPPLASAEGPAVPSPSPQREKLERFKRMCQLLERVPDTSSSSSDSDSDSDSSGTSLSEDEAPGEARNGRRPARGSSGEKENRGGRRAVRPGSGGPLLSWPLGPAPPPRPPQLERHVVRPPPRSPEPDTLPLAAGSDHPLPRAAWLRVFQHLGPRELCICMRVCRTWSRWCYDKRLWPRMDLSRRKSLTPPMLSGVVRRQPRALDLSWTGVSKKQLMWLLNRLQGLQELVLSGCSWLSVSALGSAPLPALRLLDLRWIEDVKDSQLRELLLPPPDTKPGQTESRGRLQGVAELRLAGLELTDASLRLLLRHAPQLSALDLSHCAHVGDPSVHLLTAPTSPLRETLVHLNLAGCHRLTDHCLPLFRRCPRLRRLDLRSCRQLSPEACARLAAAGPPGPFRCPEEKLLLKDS
UniProt Q9UKA2: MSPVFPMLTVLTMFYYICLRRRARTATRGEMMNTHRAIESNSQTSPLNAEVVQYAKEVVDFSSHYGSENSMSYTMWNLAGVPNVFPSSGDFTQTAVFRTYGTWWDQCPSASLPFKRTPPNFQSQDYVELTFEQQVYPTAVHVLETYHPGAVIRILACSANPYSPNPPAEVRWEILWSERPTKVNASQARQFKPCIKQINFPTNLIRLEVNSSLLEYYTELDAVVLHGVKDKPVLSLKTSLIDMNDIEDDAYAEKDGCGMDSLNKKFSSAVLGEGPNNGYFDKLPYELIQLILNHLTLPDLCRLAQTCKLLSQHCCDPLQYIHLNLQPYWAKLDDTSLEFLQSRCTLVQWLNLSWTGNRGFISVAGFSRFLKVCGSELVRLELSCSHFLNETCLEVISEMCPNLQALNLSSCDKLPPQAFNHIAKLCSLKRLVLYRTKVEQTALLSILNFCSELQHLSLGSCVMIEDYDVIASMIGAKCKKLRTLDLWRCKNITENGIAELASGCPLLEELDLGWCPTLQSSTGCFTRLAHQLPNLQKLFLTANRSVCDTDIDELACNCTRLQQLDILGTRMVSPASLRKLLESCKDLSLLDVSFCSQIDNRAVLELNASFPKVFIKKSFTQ
UniProt Q8N0W7: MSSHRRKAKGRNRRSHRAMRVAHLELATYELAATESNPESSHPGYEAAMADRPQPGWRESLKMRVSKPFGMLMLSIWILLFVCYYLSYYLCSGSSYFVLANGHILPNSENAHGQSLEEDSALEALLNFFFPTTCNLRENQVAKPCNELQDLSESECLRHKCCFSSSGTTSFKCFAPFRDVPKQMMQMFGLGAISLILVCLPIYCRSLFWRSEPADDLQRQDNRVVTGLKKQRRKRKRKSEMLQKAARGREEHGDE
UniProt Q9NVK5: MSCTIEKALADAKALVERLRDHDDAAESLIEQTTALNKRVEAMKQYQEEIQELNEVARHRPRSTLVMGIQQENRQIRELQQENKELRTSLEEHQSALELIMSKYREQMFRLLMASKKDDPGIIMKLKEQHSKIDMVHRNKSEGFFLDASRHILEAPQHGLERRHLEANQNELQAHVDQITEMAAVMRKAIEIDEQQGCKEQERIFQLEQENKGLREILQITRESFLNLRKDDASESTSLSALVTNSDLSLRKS

Key:
Assay in all cases: log2 fold change, soluble protein after heating vs DMSO (PISA); higher = thermal stabilisation; K562 lysate, 10 uM; active = over 0.2 and 3.5 SD of the protein, either way, in both replicates (recomputed)
vemurafenib = compound: CCCS(=O)(=O)Nc1ccc(F)c(C(=O)c2c[nH]c3ncc(-c4ccc(Cl)cc4)cc23)c1F [vemurafenib]
Outline: (§1)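 Values give the log-two fold change in thermal stability against solvent controls, from duplicates. Crude K562 extract at 1 mg/mL protein, made by dounce homogenisation in PBS pH 7.4 with 1 mM MgCl2, was treated with 10 μM compound for 30 min. After 3 min heating across 48°C-58°C, aliquots were pooled, adjusted to 0.5% NP-40 at 4°C and centrifuged at 21,000xg for 90 min. The supernatant was measured by TMTpro 16plex LC-MS/MS with channel sums equalised.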

[1] = compound: CCCS(=O)(=O)Nc1ccc(F)c(C(=O)c2c[nH]c3ncc(Cl)cc23)c1F
Outline: as §1

barasertib = compound: CCN(CCCOc1ccc2c(Nc3cc(CC(=O)Nc4cccc(F)c4)[nH]n3)ncnc2c1)CCOP(=O)(O)O [barasertib]
Outline: as §1

[2] = compound: CC[C@@H]1C(=O)N(C)c2cnc(Nc3ccc(C(=O)NC4CCN(C)CC4)cc3OC)nc2N1C1CCCC1
Outline: as §1

volasertib = compound: CC[C@@H]1C(=O)N(C)c2cnc(Nc3ccc(C(=O)N[C@H]4CC[C@H](N5CCN(CC6CC6)CC5)CC4)cc3OC)nc2N1C(C)C [volasertib]
Outline: as §1

[3] = compound: CCn1c(C(=O)N(C2CC2)C2CC2)cc2c3c(ncn3C)c(Nc3cc(C)n(C)n3)nc21
Outline: as §1

[4] = compound: CCn1cc(-c2ccnc3[nH]c(-c4cccc(CN(C)C)c4)cc23)c(-c2ccc(NC(=O)N(C)C)cc2)n1
Outline: as §1

[5] = compound: CN1CCC(CNc2ccc3ncc(-c4cccc(OC(F)(F)F)c4)n3n2)CC1
Outline: as §1

saracatinib = compound: CN1CCN(CCOc2cc(OC3CCOCC3)c3c(Nc4c(Cl)ccc5c4OCO5)ncnc3c2)CC1 [saracatinib]
Outline: as §1

alvocidib = compound: CN1CC[C@H](c2c(O)cc(O)c3c(=O)cc(-c4ccccc4Cl)oc23)[C@H](O)C1 [alvocidib]
Outline: as §1

Tubastatin A = compound: CN1CCc2c(c3ccccc3n2Cc2ccc(C(=O)NO)cc2)C1 [Tubastatin A]
Outline: as §1

[6] = compound: CNC(=O)C1=CC=CC=C1NC2=NC(=NC=C2Cl)NC3=C(C=C(C=C3)N4CCOCC4)OC
Outline: as §1

defactinib = compound: CNC(=O)c1ccc(Nc2ncc(C(F)(F)F)c(NCc3nccnc3N(C)S(C)(=O)=O)n2)cc1 [defactinib]
Outline: as §1

[7] = compound: CNc1nc(-c2ccc3c(N)n[nH]c3c2)cc(N2C[C@@H](C(=O)NC3CCCCC3)CC[C@H]2C)n1
Outline: as §1

encorafenib = compound: COC(=O)N[C@@H](C)CNc1nccc(-c2cn(C(C)C)nc2-c2cc(Cl)cc(NS(C)(=O)=O)c2F)n1 [encorafenib]
Outline: as §1

[8] = compound: COC(=O)[C@H](CCSC)NC(=O)C1=C(C=C(C=C1)NC[C@H](CS)N)C2=CC=CC=C2
Outline: as §1

[9] = compound: COc1cc2nc(-c3cc(F)ccc3O)nc(N[C@@H]3CNC[C@H]3C(C)(C)O)c2cc1OC
Outline: as §1

sotrastaurin = compound: CN1CCN(c2nc(C3=C(c4c[nH]c5ccccc45)C(=O)NC3=O)c3ccccc3n2)CC1 [sotrastaurin]
Outline: as §1

alisertib = compound: COc1cc(Nc2ncc3c(n2)-c2ccc(Cl)cc2C(c2c(F)cccc2OC)=NC3)ccc1C(=O)O [alisertib]
Outline: as §1

gefitinib = compound: COc1cc2ncnc(Nc3ccc(F)c(Cl)c3)c2cc1OCCCN1CCOCC1 [gefitinib]
Outline: as §1

Measured: log2 fold change

FLT4 (UniProt P35916)
inactive: vemurafenib -0.069 | [1] -0.046 | barasertib -0.036 | [2] -0.031 | volasertib -0.042 | [3] 0.135 | [4] 0.018 | [5] 0.08 | saracatinib -0.036 | alvocidib -0.086 | Tubastatin A -0.001 | defactinib 0.004 | [7] -0.081 | encorafenib -0.129 | [8] 0.053 | [9] 0.031
active: [6] -0.428

FARP1 isoform 2 (UniProt Q9Y4F1)
inactive: vemurafenib 0.041 | barasertib -0.193 | [2] -0.05 | [3] -0.068 | saracatinib 0.037 | sotrastaurin -0.098 | Tubastatin A -0.108 | defactinib -0.069 | [7] 0.045 | encorafenib -0.117 | [8] 0.234

FGFR1OP isoform 3 (UniProt O95684)
inactive: vemurafenib -0.001 | defactinib -0.205

FASTKD1 (UniProt Q53R41)
inactive: vemurafenib 0.025 | [2] -0.069 | [3] 0.021 | [4] 0.024 | [5] 0.085 | saracatinib 0.04 | sotrastaurin 0 | alvocidib -0.088 | Tubastatin A -0.157 | [6] 0.034 | defactinib -0.002 | [7] -0.06 | encorafenib -0.003 | [8] 0.056 | alisertib -0.001 | gefitinib 0.066

FMR1 isoform 9 (UniProt Q06787)
inactive: [1] -0.013 | barasertib -0.177 | volasertib -0.035 | [3] 0.225 | saracatinib -0.233 | sotrastaurin 0.069 | Tubastatin A -0.046 | [6] 0.223 | [7] -0.011 | [9] 0.002

FARS2 (UniProt O95363)
inactive: vemurafenib 0.126 | [1] 0.126 | barasertib 0.044 | [2] -0.114 | volasertib 0.108 | [3] -0.101 | [4] -0.408 | [5] 0.006 | sotrastaurin 0.004 | alvocidib -0.031 | Tubastatin A -0.055 | [6] 0.043 | defactinib -0.009 | encorafenib -0.035 | [8] 0.193 | alisertib 0.365 | [9] 0.054 | gefitinib -0.191

FAM86B2 (UniProt P0C5J1)
inactive: vemurafenib -0.169 | [1] 0.215 | barasertib 0.042 | volasertib -0.045 | [3] 0.079 | Tubastatin A -0.084 | defactinib 0.179 | alisertib 0.15 | [9] 0.2 | gefitinib -0.042

FBXO11 isoform 5 (UniProt Q86XK2)
inactive: [1] 0 | barasertib 0.022 | volasertib 0.106 | [3] 0.076 | [4] 0.058 | [5] -0.067 | saracatinib -0.016 | sotrastaurin 0.049 | alvocidib -0.015 | Tubastatin A 0.008 | [6] -0.115 | [7] -0.044 | alisertib -0.055 | [9] -0.157 | gefitinib 0.035

FGF13 isoform 3 (UniProt Q92913)
inactive: [1] 0.047 | barasertib 0.105 | [2] 0.02 | volasertib -0.018 | [3] -0.049 | [4] -0.182 | [5] 0.117 | saracatinib 0.062 | sotrastaurin 0.036 | alvocidib -0.079 | Tubastatin A 0.046 | [6] 0.073 | [7] 0.034 | encorafenib -0.071 | [8] 0.056 | alisertib -0.028 | [9] -0.027 | gefitinib -0.005

FARP2 (UniProt O94887)
inactive: [1] -0.402 | barasertib 0.345 | volasertib -0.131 | [3] -0.023 | [4] -0.275 | [5] 0.155 | saracatinib -0.1 | sotrastaurin 0 | alvocidib -0.113 | Tubastatin A -0.05 | [6] -0.104 | [7] 0.1 | alisertib -0.037 | [9] -0.077 | gefitinib -0.021

FBRSL1, A0A3B3IRR3
inactive: vemurafenib 0.132 | barasertib 0.055 | [2] 0.069 | [3] 0.085 | [4] 0 | [5] -0.061 | saracatinib -0.028 | sotrastaurin -0.039 | alvocidib -0.051 | Tubastatin A -0.004 | [6] -0.074 | defactinib -0.002 | [7] 0.008 | encorafenib 0.021 | [8] -0.03 | alisertib -0.018 | gefitinib 0.014

FANCG (UniProt O15287)
inactive: vemurafenib -0.072 | [2] 0.154 | [3] 0.027 | [4] 0.343 | [5] -0.159 | sotrastaurin 0.246 | alvocidib -0.005 | Tubastatin A 0.173 | defactinib 0.278 | encorafenib 0.07 | [8] 0.087 | alisertib 0.1 | gefitinib -0.128

FANCA (UniProt O15360)
inactive: vemurafenib -0.018 | [2] -0.099 | saracatinib -0.039 | sotrastaurin 0.176 | defactinib 0.143 | [7] 0.133 | encorafenib -0.041 | [8] 0.157

FANCE (UniProt Q9HB96)
inactive: [1] 0.008 | volasertib -0.115 | [4] 0.045 | [5] -0.175 | saracatinib 0.145 | sotrastaurin 0.077 | alvocidib -0.126 | [7] -0.075 | alisertib 0.001 | [9] -0.086 | gefitinib 0.095

FNTA (UniProt H0YCW1)
inactive: [3] -0.173 | Tubastatin A 0.048

FBXL19 (UniProt Q6PCT2)
inactive: [3] -0.017 | sotrastaurin -0.088 | Tubastatin A 0.09 | [6] -0.162

FBXL4 (UniProt Q9UKA2)
inactive: [2] 0.037 | [3] 0.059 | Tubastatin A -0.172 | [6] -0.037 | encorafenib -0.06 | [8] 0.03 | alisertib 0.06 | gefitinib -0.391

FMR1NB (UniProt Q8N0W7)
inactive: sotrastaurin 0.167

Quoted from the results shown (two entries):
FNTA (UniProt H0YCW1)
inactive: [3] -0.173 | Tubastatin A 0.048

FBXL19 (UniProt Q6PCT2)
inactive: [3] -0.017 | sotrastaurin -0.088 | Tubastatin A 0.09 | [6] -0.162

Additional entries:

FBXO33 (UniProt Q7Z6M2)
inactive: [3] -0.141 | Tubastatin A 0

FGFR1OP2 isoform 2 (UniProt Q9NVK5)
inactive: [4] 0.188 | [5] -0.104 | sotrastaurin 0.071 | alvocidib 0.067
